Results published in patent publication US20230357519A1, “REMOVAL OF ODORANTS FROM POST-CONSUMER POLYOLEFIN WASTE” (Borealis AG, priority 2020, published 2023).

Assay: Washing efficiency: reduction of contaminant content in recycled polyolefin after the wash, by HS-GC/MS
[1] = wash: Water/heptane 10:90 emulsion, ultrasound, 1 hour (Inventive Example 3)
[2] = wash: Water/heptane 50:50 emulsion, ultrasound, 1 hour (Inventive Example 2)
[3] = wash: Water/heptane 90:10 (UT), Ultraturrax machine at 65° C. (Inventive Example 4)
[4] = wash: Water/heptane 90:10 (UT/ice), Ultraturrax machine cooled with ice, approx. 20° C. (Inventive Example 5)
[5] = wash: Water/heptane 90:10 emulsion, ultrasound, 1 hour (Inventive Example 1)
[6] = wash: heptane 100 ml, ultrasound, 1 hour (Comparative Example 2)
[7] = wash: water 100 ml, ultrasound, 1 hour (Comparative Example 1)

Structure (SMILES)	Washing efficiency (reduction of contaminant, based on content before the treatment) [1] [%]	Washing efficiency (reduction of contaminant, based on content before the treatment) [2] [%]	Washing efficiency (reduction of contaminant, based on content before the treatment) [3] [%]	Washing efficiency (reduction of contaminant, based on content before the treatment) [4] [%]	Washing efficiency (reduction of contaminant, based on content before the treatment) [5] [%]	Washing efficiency (reduction of contaminant, based on content before the treatment) [6] [%]	Washing efficiency (reduction of contaminant, based on content before the treatment) [7] [%]
CC(O)C(C)O (centres unmarked) [2,3-Butanediol]	100	100	100	100	100	98	100
CCCCC(C)CCCC(C)C (centres unmarked) [2,6-Dimethyl decane]	99	100	98	98	96	100	30
CCCCC(CC)CO (centres unmarked) [2-Ethyl-1-hexanol]	99	98	96	94	95	92	49
CCCCCCCC(C)=O [2-Nonanone]	100	100	100	100	100	100	62
CCCC(C)=O [2-Pentanone]	99	99	99	98	96	92	78
CCCCC(CCCC)CC(C)C [5-(2-Methylpropyl)-nonane]	98	98	96	100	95	89	8
C=C(C)[C@H]1CC=C(C)CC1 [D-Limonene]	100	99	99	97	100	100	42
C=Cc1ccccc1 [Styrene]	98	99	98	98	98	96	48
